# The supplement of paper PMC6411743
# ± gives the standard deviation of the averaged measurements. Only a part is listed here, and it is no random draw.
# Assays:
# Experiment in all cases: NP40-soluble protein abundance relative to vehicle (solubility fold change) (ratio); higher = more soluble protein in presence of ATP
# ALG3 = target: T1, ALG3 (UniProt Q92685)
# T1 sequence (whole entry): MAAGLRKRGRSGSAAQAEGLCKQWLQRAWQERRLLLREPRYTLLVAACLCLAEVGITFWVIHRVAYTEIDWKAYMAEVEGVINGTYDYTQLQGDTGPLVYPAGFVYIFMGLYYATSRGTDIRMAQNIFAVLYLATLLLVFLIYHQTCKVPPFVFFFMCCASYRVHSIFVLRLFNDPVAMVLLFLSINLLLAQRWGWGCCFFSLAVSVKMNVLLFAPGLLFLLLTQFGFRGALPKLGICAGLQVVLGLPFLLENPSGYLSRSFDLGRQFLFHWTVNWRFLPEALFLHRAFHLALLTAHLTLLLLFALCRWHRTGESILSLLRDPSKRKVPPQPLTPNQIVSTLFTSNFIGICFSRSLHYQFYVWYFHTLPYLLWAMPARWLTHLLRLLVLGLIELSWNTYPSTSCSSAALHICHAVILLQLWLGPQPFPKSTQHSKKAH
# Procedure, shortened: (§1)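 Jurkat crude lysate prepared with a Dounce homogeniser was treated at eight concentrations spanning 0.1 to 10 mM, 10 min at room temperature then 3 min at 37 °C. Solubilisation with 0.8% NP40 and benzonase and ultracentrifugation preceded TMT labelling of the supernatant for LC-MS/MS. Fold change against the detergent-processed vehicle was determined per replicate from vsn-normalised intensities, across three independent experiments.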
# COG1 = target: T2, COG1 (UniProt Q8WTW3)
# T2 sequence (whole entry): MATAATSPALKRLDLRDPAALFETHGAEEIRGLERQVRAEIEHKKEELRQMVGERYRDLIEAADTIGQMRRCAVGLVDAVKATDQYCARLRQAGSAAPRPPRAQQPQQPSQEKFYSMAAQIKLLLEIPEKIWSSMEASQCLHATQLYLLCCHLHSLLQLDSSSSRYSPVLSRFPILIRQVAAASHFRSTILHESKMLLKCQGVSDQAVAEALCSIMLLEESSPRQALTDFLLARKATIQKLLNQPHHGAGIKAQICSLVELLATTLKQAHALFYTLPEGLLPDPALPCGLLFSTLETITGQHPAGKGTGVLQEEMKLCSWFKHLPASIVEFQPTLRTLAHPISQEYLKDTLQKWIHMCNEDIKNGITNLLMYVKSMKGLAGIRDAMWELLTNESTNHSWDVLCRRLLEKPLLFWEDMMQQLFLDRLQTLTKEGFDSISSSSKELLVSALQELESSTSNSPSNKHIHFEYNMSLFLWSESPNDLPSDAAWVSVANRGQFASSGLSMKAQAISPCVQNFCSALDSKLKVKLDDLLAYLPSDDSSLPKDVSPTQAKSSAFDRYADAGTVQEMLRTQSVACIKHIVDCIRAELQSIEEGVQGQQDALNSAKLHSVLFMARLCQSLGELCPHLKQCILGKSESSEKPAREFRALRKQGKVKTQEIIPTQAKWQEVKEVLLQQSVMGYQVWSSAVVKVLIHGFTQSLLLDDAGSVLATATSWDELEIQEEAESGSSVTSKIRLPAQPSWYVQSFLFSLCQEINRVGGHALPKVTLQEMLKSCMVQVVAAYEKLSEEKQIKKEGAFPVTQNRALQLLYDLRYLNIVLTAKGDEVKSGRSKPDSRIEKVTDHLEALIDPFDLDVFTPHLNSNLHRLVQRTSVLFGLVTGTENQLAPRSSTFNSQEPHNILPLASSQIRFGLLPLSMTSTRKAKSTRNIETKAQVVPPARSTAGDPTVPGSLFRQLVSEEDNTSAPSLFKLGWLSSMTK
# Procedure, shortened: as §1
# FAM3C = target: T3, FAM3C (UniProt Q92520)
# T3 sequence (whole entry): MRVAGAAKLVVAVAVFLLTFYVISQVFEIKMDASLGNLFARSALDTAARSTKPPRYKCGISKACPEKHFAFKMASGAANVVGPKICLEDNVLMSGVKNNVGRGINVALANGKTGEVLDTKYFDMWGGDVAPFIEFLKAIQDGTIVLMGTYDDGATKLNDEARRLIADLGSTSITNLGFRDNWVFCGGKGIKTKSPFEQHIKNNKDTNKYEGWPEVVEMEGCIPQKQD
# Procedure, shortened: as §1
# JADE3 = target: T4, JADE3 (UniProt Q92613)
# T4 sequence (whole entry): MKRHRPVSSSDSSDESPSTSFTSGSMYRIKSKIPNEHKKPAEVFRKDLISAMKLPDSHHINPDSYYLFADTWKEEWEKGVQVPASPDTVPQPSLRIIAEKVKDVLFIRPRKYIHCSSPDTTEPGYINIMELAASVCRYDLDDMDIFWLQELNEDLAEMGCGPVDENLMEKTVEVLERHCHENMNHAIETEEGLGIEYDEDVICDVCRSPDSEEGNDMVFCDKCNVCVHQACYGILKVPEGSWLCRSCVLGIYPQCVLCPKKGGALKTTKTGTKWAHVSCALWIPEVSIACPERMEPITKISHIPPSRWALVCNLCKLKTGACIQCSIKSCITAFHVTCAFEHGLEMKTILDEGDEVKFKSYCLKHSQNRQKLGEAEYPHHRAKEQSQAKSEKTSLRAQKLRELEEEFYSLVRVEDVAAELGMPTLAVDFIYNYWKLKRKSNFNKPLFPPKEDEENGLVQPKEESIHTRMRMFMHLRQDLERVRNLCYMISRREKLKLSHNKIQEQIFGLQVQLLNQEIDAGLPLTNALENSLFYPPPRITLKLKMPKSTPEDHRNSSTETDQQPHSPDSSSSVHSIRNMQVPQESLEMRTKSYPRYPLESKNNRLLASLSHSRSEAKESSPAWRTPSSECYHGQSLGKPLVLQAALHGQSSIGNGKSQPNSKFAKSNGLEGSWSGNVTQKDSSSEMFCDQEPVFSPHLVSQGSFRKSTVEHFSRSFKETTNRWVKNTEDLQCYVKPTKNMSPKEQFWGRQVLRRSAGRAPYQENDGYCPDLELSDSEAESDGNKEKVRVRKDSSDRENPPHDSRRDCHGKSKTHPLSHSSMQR
# Procedure, shortened: as §1
# NSMCE1 = target: T5, NSMCE1 (UniProt Q8WV22)
# T5 sequence (whole entry): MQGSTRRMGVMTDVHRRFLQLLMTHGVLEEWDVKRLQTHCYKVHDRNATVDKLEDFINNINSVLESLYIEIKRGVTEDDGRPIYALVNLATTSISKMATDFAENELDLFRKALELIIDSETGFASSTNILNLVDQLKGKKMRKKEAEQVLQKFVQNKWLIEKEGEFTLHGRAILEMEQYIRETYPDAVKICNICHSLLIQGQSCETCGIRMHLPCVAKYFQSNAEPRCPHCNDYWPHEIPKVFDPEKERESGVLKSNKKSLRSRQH
# Procedure, shortened: as §1
# NT5C3B = target: T6, NT5C3B (UniProt Q969T7)
# T6 sequence (whole entry): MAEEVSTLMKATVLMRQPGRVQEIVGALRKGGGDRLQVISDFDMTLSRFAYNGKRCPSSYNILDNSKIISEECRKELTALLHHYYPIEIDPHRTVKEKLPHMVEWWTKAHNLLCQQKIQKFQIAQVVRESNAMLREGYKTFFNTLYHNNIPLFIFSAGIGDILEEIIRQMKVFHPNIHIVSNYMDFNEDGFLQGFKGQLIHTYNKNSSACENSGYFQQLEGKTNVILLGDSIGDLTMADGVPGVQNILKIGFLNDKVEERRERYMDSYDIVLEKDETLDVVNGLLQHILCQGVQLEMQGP
# Procedure, shortened: as §1
smiles,measurement,setting,value
Nc1ncnc2c1ncn2[C@@H]1O[C@H](COP(=O)(O)OP(=O)(O)OP(=O)(O)O)[C@@H](O)[C@H]1O [adenosine triphosphate],NP40-soluble protein abundance,ALG3; concentration: 1mM,1.23 ± 0.24
same,NP40-soluble protein abundance,ALG3; concentration: 2mM,1 ± 0.12
same,NP40-soluble protein abundance,ALG3; concentration: 4mM,0.965 ± 0.061
same,NP40-soluble protein abundance,ALG3; concentration: 6mM,0.902 ± 0.12
same,NP40-soluble protein abundance,ALG3; concentration: 8mM,0.865 ± 0.04
same,NP40-soluble protein abundance,ALG3; concentration: 10mM,0.932 ± 0.019
same,NP40-soluble protein abundance,COG1; concentration: 1mM,0.973 ± 0.05
same,NP40-soluble protein abundance,COG1; concentration: 2mM,0.9604 ± 0.0027
same,NP40-soluble protein abundance,COG1; concentration: 4mM,0.952 ± 0.062
same,NP40-soluble protein abundance,COG1; concentration: 6mM,0.897 ± 0.07
same,NP40-soluble protein abundance,COG1; concentration: 8mM,0.906 ± 0.055
same,NP40-soluble protein abundance,COG1; concentration: 10mM,0.93 ± 0.043
same,NP40-soluble protein abundance,FAM3C; concentration: 1mM,0.918 ± 0.068
same,NP40-soluble protein abundance,FAM3C; concentration: 2mM,0.972 ± 0.011
same,NP40-soluble protein abundance,FAM3C; concentration: 4mM,0.947 ± 0.02
same,NP40-soluble protein abundance,FAM3C; concentration: 6mM,0.974 ± 0.011
same,NP40-soluble protein abundance,FAM3C; concentration: 8mM,0.922 ± 0.044
same,NP40-soluble protein abundance,FAM3C; concentration: 10mM,0.903 ± 0.041
same,NP40-soluble protein abundance,JADE3; concentration: 1mM,1.17 ± 0.032
same,NP40-soluble protein abundance,JADE3; concentration: 2mM,1.19 ± 0.076
same,NP40-soluble protein abundance,JADE3; concentration: 4mM,1.26 ± 0.055
same,NP40-soluble protein abundance,JADE3; concentration: 6mM,1.27 ± 0.04
same,NP40-soluble protein abundance,JADE3; concentration: 8mM,1.29 ± 0.086
same,NP40-soluble protein abundance,JADE3; concentration: 10mM,1.28 ± 0.032
same,NP40-soluble protein abundance,NSMCE1; concentration: 1mM,1.02 ± 0.037
same,NP40-soluble protein abundance,NSMCE1; concentration: 2mM,1.04 ± 0.025
same,NP40-soluble protein abundance,NSMCE1; concentration: 4mM,1.03 ± 0.04
same,NP40-soluble protein abundance,NSMCE1; concentration: 6mM,1.05 ± 0.032
same,NP40-soluble protein abundance,NSMCE1; concentration: 8mM,1.02 ± 0.061
same,NP40-soluble protein abundance,NSMCE1; concentration: 10mM,0.984 ± 0.03
same,NP40-soluble protein abundance,NT5C3B; concentration: 1mM,0.952 ± 0.013
same,NP40-soluble protein abundance,NT5C3B; concentration: 2mM,0.959 ± 0.015
same,NP40-soluble protein abundance,NT5C3B; concentration: 4mM,0.97 ± 0.028

# Retrieved one by one from the entries so far:
smiles,measurement,setting,value
Nc1ncnc2c1ncn2[C@@H]1O[C@H](COP(=O)(O)OP(=O)(O)OP(=O)(O)O)[C@@H](O)[C@H]1O [adenosine triphosphate],NP40-soluble protein abundance,COG1; concentration: 2mM,0.9604 ± 0.0027
same,NP40-soluble protein abundance,NSMCE1; concentration: 1mM,1.02 ± 0.037
